Some of these results come from one statement about several compounds together.
How the values were obtained:
Format in all cases: in vivo
[1] = test system: Nilaparvata lugens; test: Nilaparvata lugens spray test; conditions: 500 g/ha; after 4 days; rice plants, larvae
Method: Nilaparvata lugens—Spray Test
(§1) To produce a suitable preparation of active compound, 1 part by weight of active compound is mixed with the stated amount of solvents and is diluted with water, containing an emulsifier concentration of 1000 ppm, to the desired concentration. Further test concentrations are prepared by dilution with emulsifier containing water. Ammonium salt and/or penetration enhancer in a dosage of 1000 ppm are added to the desired concentration if necessary.
Rice plants (Oryza sativa) are treated by being sprayed with the desired concentration of the active compound and are infested with larvae of the brown planthopper (Nilaparvata lugens).
After 4 days mortality in % is determined. 100% means all planthoppers have been killed and 0% means none of the planthoppers have been killed.

[2] = test system: Phaedon cochleariae; test: Phaedon cochleariae spray test; conditions: 500 g/ha; after 7 days; Chinese cabbage leaf disks, larvae
Method: Phaedon cochleariae—Spray Test
as §1, with “water.” for “water. Ammonium salt and/or penetration enhancer in a dosage of 1000 ppm are added to the desired concentration if necessary.”
Chinese cabbage (Brassica pekinensis) leaf disks are sprayed with a preparation of the active ingredient of the desired concentration. Once dry, the leaf disks are infested with mustard beetle larvae (Phaedon cochleariae).
After 7 days mortality in % is determined. 100% means all beetle larvae have been killed and 0% means none of the beetle larvae have been killed.

[3] = test system: Nezara viridula; test: Nezara viridula spray test (barley plants, mortality); conditions: 500 g/ha, after 4 days, larvae
Method: Nezara viridula—Spray Test
To produce a suitable preparation of active compound, 1 part by weight of active compound is mixed with the stated amount of solvent, and the concentrate is diluted with water, containing an emulsifier concentration of 1000 ppm, to the desired concentration Ammonium salt and/or penetration enhancer in a dosage of 1000 ppm are added to the desired concentration if necessary.
Barley plants (Hordeum vulgare) infested with larvae of the southern green stink bug (Nezara viridula) are sprayed with a test solution containing the desired concentration of the active ingredient.
After 4 days, mortality in % is determined. 100% means all the stink bugs have been killed; 0% means none of the stink bugs have been killed.

| SMILES | mortality in % [1] | mortality in % [2] | mortality in % [3] |
| --- | --- | --- | --- |
| O=C(Nc1nc(-c2c(F)ccc(C(F)(F)F)c2F)ns1)c1nccnc1C(F)(F)F [Compound I-1-4] | ≥ 90% | – | – |
| O=C(Nc1nc(-c2c(F)ccc(F)c2F)ns1)c1ccccc1Cl [Compound I-1-30] | – | 100% | 100% |
| O=C(Nc1nc(-c2c(F)c(F)cc(F)c2F)ns1)c1cccnc1C(F)(F)F [Compound I-1-33] | ≥ 90% | – | – |
